These are yes or no findings as the source states them, for the method shown. In cells and extracts the contact can be indirect. Some binding calls cover weakened binding; strength is not graded here. Tags and fused reporters may be left off the sequences shown.
Columns and labels:
human Sipa-1 (human) [1] = molecular target: T1, human Sipa-1 (human) (UniProt Q96FS4); experiment: recap of Example 1 (yeast two hybrid, co-immunoprecipitation)
T1 sequence (looked up): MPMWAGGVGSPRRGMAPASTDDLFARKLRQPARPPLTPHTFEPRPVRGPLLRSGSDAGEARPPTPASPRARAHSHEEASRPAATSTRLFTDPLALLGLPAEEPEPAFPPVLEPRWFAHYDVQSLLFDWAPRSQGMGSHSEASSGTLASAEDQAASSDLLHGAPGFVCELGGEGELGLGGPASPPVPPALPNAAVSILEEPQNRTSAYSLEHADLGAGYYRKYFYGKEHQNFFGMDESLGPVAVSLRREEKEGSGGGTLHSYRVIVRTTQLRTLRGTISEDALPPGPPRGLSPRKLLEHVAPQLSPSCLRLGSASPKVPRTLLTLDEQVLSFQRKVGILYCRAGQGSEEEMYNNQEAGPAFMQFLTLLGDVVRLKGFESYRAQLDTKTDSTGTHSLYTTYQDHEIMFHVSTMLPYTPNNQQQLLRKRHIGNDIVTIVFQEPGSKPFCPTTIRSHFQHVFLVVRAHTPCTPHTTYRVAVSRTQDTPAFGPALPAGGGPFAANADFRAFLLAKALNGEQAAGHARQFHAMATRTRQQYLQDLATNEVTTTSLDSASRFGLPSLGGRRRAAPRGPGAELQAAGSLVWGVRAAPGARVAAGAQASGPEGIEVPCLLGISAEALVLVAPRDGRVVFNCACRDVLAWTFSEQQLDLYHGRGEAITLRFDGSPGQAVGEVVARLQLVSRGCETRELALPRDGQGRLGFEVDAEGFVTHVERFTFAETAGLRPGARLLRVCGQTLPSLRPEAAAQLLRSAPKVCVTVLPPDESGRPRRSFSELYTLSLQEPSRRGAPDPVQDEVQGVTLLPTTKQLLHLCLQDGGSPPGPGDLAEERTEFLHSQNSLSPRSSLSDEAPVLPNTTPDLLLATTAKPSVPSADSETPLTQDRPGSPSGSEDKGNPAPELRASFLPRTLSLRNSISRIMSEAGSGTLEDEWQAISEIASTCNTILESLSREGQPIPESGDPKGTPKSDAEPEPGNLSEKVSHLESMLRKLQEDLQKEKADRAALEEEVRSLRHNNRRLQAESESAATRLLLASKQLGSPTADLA

human Sipa-1 (human) [2] = molecular target: T1, human Sipa-1 (human); experiment: co-immunoprecipitation from co-transfected cells, immunoblot

B1: Anakin expressed from pcDNA3-Anakin (detected with anti-V5 antibody) (protein, not shown: small tags and cut ends)
chain: MALAMQSSEFQFAQRLASSEKGVRDRAVRKLRQYLSARTQSDTGSFSQEELLKIWKGLFYCMWVQDEPLLQEELANIISQLIHVVNSLEAQYLFIQTFWQTMNREWQGIDKLQLDKYYMLIRLVLRQSFEVLKRNAWEESQITLFLDILMKEILSPESQSPNGVRTHLIDVYLEELTTVGGAELLADQNLKLIDPFCRIAAKTKDHTLAQTVARGVFEVIVDQSACVPEESVEERKTKEDGSGFPTKALACRKAVSGKKAALDECLRDGVIGSRERDICAALKDSGSPLQFDYKAVADRLLEIANSKSTPPFNRKRLCRLVRKFQDLCEGNGAPLSSAEDNGQRRHKRKRKKLLESEKGDTVSPAAEEDSGGHIHKKKRKKRKRSHFQPDTQNLDAVAVPKVPDSESEPDTAQRQAPCGQACVTEPTAEAVSSIGENSSKPTPVMPIHNKRKRPRKKKLRAHKEICKSTTLPQEDMSKNDAVSGHSQSSAAHISSSEGVQAQKRKRKLGALPDSSSDLPVQKSGTPTSPVEGKDGQTTLPRCKRSQKKTASSTLDPCDPSSQKPAISKKKKKTMKLMSNGVLESNPGQIQALGSNRTLKKPLKTEDDFVKFDTRFLPKPLFFRKAKNSSATRPQGPAGQLNKTPSSSKKVTFGLNRNMTAEFKKTDKSILVSPTGLSRVAFNPEQRPLHGVLKTATSSPASTPLSPMRLPATTPKRRPRAADFF
With B1 the binding (human Sipa-1 (human) [1]) was “binds” and the binding (human Sipa-1 (human) [2]) was “binds”.

— US20100166707A1
